These results are taken from paper PMC4941368.

The chains behind the UniProt entries cited, without tags or fusion partners.
UniProt P01106: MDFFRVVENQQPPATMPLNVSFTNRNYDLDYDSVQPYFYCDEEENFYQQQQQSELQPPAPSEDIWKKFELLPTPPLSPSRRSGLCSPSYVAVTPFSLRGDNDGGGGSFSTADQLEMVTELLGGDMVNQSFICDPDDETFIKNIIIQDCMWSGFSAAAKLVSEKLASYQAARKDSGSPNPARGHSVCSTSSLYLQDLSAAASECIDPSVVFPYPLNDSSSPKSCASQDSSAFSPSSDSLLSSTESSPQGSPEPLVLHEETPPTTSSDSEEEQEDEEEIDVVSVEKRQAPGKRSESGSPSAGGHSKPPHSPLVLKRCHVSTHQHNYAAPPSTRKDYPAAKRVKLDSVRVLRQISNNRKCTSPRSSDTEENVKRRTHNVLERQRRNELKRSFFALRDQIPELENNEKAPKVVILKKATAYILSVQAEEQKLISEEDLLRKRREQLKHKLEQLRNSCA
UniProt P49715: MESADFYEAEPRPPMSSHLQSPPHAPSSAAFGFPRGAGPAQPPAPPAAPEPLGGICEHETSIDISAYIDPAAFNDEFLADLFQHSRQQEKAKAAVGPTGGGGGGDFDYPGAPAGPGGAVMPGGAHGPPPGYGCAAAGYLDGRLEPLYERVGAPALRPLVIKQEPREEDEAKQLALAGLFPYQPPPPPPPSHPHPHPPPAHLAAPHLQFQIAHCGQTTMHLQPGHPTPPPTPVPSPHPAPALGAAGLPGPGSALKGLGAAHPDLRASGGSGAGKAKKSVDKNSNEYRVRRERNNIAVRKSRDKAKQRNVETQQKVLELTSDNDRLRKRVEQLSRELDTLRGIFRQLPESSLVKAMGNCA

In this assay the target is c-myc (endogenous, Huh7 cells) (human (endogenous in Huh-7)) (UniProt P01106). Description: co-IP; lysate of Huh-7 cells transfected with pCDNA3.1-C/EBPα; precipitated with mouse anti-c-myc (sc-40) or mouse control IgG at 4°C overnight, protein G-sepharose; immunoblot with anti-flag antibody.

Results are given in words; binding and its absence hold for the method and conditions named. Binding seen in cells or lysates may run through a third protein. Some results given as binding are weak or reduced against the parent protein; the word gives no strength.

Regarding “C/EBPα (expressed from pCDNA3.1-C/EBPα) (from UniProt P49715 1-358)”, the binding entry was “binds”.
